Source: PubChem BioAssay AID602196 (INSERM, 2012)

Aim: 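Knock-downs that protect lung cancer cells from cisplatin or sensitise them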
Cells: human A549 lung cancer cells
Knock-down reagent: siRNA pair against human genes
Duration: 48 h transfection before cisplatin; time from cisplatin to read-out not stated
Challenge: cisplatin at a dose killing half of control-siRNA cells; exact dose and duration not given
Measurement: 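Cisplatin cell death as a shift from the 50% death seen with control siRNA; siRNAs toxic or growth-blocking alone scored 0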
Direction: two-siRNA summed score (-2 to +2): higher = both siRNAs protect from cisplatin killing; -2 means both sensitise
Call rule: 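Each siRNA scores 0 if harmful alone by LDH or WST-1, otherwise +1 if it reduces and -1 if it increases cisplatin killing; a gene is active when both siRNAs agree (sum +2 or -2)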
Calls: active = both siRNAs shift cisplatin killing the same way; inactive = no consistent shift, or siRNA harmful alone
The deposit covers about 23,000 reagents; shown is a part drawn at random. 455 of all reagents (2%) count as active. 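Active includes both protection and sensitisation; some change values fall well beyond the stated -50 to +50 range.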 The numbers tell different reagents against one gene apart. Further read-outs or replicates are left out here. Not given: the amount of reagent.

For TMPRSS4 the deposit lists two-siRNA summed score (-2 to +2) = 0; inactive.
Silencing of LOC391241 resulted in: two-siRNA summed score (-2 to +2) = 0; inactive.
With knock-down of ANGPTL7, the screen gave two-siRNA summed score (-2 to +2) = 0; inactive.
Against IVL, the values are two-siRNA summed score (-2 to +2) = 1; inactive.
Knock-down of MYLK2 gave: two-siRNA summed score (-2 to +2) = 0; inactive.
For PDSS2, the entry reads two-siRNA summed score (-2 to +2) = 0; inactive.
Knock-down of LOC442506 came out at: two-siRNA summed score (-2 to +2) = 0; inactive.
SLC25A1 gave two-siRNA summed score (-2 to +2) = 0; inactive.
Silencing of NSMCE3 resulted in: two-siRNA summed score (-2 to +2) = 0; inactive.
Depletion of NPFFR1 gave: two-siRNA summed score (-2 to +2) = -1; inactive.
Depletion of SERHL2 gave: two-siRNA summed score (-2 to +2) = 0; inactive.
Silencing of LOC339782 gave: two-siRNA summed score (-2 to +2) = 0; inactive.
With knock-down of CDC50A, the screen gave two-siRNA summed score (-2 to +2) = 0; inactive.
For DKFZp566H0824, the entry reads two-siRNA summed score (-2 to +2) = 0; inactive.
Against AMER3 the deposit lists two-siRNA summed score (-2 to +2) = 1; inactive.
With knock-down of THRA, the record shows two-siRNA summed score (-2 to +2) = 0; inactive.

Entries above whose target name starts with T or t (2):
TMPRSS4 — two-siRNA summed score (-2 to +2): 0; outcome: inactive
THRA — two-siRNA summed score (-2 to +2): 0; outcome: inactive

The list goes on.
PPDPF gave two-siRNA summed score (-2 to +2) = 1; inactive.
PCDHGA1 scored two-siRNA summed score (-2 to +2) = 0; inactive.
With knock-down of ARF6, the record shows two-siRNA summed score (-2 to +2) = 0; inactive.
CPLX1 showed two-siRNA summed score (-2 to +2) = 0; inactive.
Depletion of HERC2P2 came out at: two-siRNA summed score (-2 to +2) = 0; inactive.
ANKUB1 scored two-siRNA summed score (-2 to +2) = 0; inactive.
After knock-down of CORO6 the results were two-siRNA summed score (-2 to +2) = 0; inactive.
FBXO45 scored two-siRNA summed score (-2 to +2) = 0; inactive.
Against CEACAM8 the deposit lists two-siRNA summed score (-2 to +2) = 0; inactive.
After knock-down of TEC the results were two-siRNA summed score (-2 to +2) = -1; inactive.
XKR3 gave two-siRNA summed score (-2 to +2) = 0; inactive.
After knock-down of MX1 the results were two-siRNA summed score (-2 to +2) = -2; active.
A2M #1 showed two-siRNA summed score (-2 to +2) = -1; inactive.
With knock-down of A2M #2 the results were two-siRNA summed score (-2 to +2) = 0; inactive.
Against MED11, the values are two-siRNA summed score (-2 to +2) = 0; inactive.
For PEG3, the entry reads two-siRNA summed score (-2 to +2) = 0; inactive.
With knock-down of IL22RA2, the record shows two-siRNA summed score (-2 to +2) = -1; inactive.
With knock-down of RPP21, the screen gave two-siRNA summed score (-2 to +2) = -1; inactive.
Knock-down of RHOV resulted in: two-siRNA summed score (-2 to +2) = 0; inactive.
Against FBXL12, the entry reads two-siRNA summed score (-2 to +2) = 1; inactive.
Against FLJ25756 the deposit lists two-siRNA summed score (-2 to +2) = 1; inactive.
With knock-down of DYNC2H1, the screen gave two-siRNA summed score (-2 to +2) = 1; inactive.
With knock-down of CEBPD the results were two-siRNA summed score (-2 to +2) = 0; inactive.
For CRCP the deposit lists two-siRNA summed score (-2 to +2) = 0; inactive.
